According to article PMC6156364, “Bioinformatic and in vitro Analyses of Arabidopsis Starch Synthase 2 Reveal Post-translational Regulatory Mechanisms” (Frontiers in Plant Science, 2018):
These are yes or no findings as the source states them, for the method shown. Binding seen in cells or lysates may run through a third protein. Binding calls can cover weak binding; strength is not graded here.

Amino acid sequences for entries named in this document (tags omitted). A change or cut given only in a name is not applied to a line headed by its entry.
UniProt Q9MAC8: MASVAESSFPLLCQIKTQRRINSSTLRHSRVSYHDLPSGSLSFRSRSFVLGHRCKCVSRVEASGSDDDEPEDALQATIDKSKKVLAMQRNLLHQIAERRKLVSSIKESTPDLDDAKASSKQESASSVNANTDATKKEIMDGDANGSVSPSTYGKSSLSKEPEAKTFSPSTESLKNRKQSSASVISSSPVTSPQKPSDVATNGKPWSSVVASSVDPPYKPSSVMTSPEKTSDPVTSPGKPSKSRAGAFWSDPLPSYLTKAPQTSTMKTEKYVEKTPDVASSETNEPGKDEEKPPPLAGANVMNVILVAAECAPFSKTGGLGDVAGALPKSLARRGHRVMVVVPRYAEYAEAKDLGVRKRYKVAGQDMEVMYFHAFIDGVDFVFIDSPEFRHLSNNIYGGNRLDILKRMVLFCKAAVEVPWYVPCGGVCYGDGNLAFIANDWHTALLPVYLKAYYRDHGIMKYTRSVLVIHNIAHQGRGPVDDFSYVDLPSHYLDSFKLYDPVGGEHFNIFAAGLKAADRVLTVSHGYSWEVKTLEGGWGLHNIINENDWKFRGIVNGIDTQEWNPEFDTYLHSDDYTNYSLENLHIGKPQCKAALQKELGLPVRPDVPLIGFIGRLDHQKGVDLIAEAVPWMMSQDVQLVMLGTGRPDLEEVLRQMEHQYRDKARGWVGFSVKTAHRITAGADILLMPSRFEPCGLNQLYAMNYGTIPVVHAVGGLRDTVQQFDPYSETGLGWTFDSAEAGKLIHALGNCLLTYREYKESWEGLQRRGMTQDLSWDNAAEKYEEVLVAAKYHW

Experiments:
Test in all cases: pull-down; S-tagged SS2 immobilised on S-protein agarose beads as bait, incubated 40 min at room temperature with plastid stroma (~1 mg/ml) with 1 mM ATP, DTT, CaCl2, protease inhibitors; washed with 20 mM Tris-HCl pH 7.5, 150 mM NaCl, 0.1% Triton-X100; immunoblot with SBE antibodies; the paper calls it co-immunoprecipitation; only the target purified
[1] = molecular target: recombinant S-tagged Arabidopsis SS2 N-terminal truncation TRU1 (Arabidopsis thaliana) (UniProt Q9MAC8)
[2] = molecular target: recombinant S-tagged Arabidopsis SS2 N-terminal truncation TRU4 (Arabidopsis thaliana) (UniProt Q9MAC8)
[3] = molecular target: recombinant S-tagged Arabidopsis SS2 N-terminal truncation TRU5 (Arabidopsis thaliana) (UniProt Q9MAC8)

binding [1]: binds
binding [2]: binds
binding [3]: binds
B1: maize starch branching enzyme IIb (enzyme, UniProt Q08047 58-799)
chain: RKAVMVPEGENDGLASRADSAQFQSDELEVPDISEETTCGAGVADAQALNRVRVVPPPSDGQKIFQIDPMLQGYKYHLEYRYSLYRRIRSDIDEHEGGLEAFSRSYEKFGFNASAEGITYREWAPGAFSAALVGDVNNWDPNADRMSKNEFGVWEIFLPNNADGTSPIPHGSRVKVRMDTPSGIKDSIPAWIKYSVQAPGEIPYDGIYYDPPEEVKYVFRHAQPKRPKSLRIYETHVGMSSPEPKINTYVNFRDEVLPRIKKLGYNAVQIMAIQEHSYYGSFGYHVTNFFAPSSRFGTPEDLKSLIDRAHELGLLVLMDVVHSHASSNTLDGLNGFDGTDTHYFHSGPRGHHWMWDSRLFNYGNWEVLRFLLSNARWWLEEYKFDGFRFDGVTSMMYTHHGLQVTFTGNFNEYFGFATDVDAVVYLMLVNDLIHGLYPEAVTIGEDVSGMPTFALPVHDGGVGFDYRMHMAVADKWIDLLKQSDETWKMGDIVHTLTNRRWLEKCVTYAESHDQALVGDKTIAFWLMDKDMYDFMALDRPSTPTIDRGIALHKMIRLITMGLGGEGYLNFMGNEFGHPEWIDFPRGPQRLPSGKFIPGNNNSYDKCRRRFDLGDADYLRYHGMQEFDQAMQHLEQKYEFMTSDHQYISRKHEEDKVIVFEKGDLVFVFNFHCNNSYFDYRIGCRKPGVYKVVLDSDAGLFGGFSRIHHAAEHFTADCSHDNRPYSFSVYTPSRTCVVYAPVE
